For 30 compounds, log2 fold change results are on record in the supplement of paper PMC10849652.

Protein sequences, listed by entry. Tags and fused reporters are not part of them. Lines headed by an entry give the natural chain unless they say otherwise; changes in a name come on top.
UniProt Q15649: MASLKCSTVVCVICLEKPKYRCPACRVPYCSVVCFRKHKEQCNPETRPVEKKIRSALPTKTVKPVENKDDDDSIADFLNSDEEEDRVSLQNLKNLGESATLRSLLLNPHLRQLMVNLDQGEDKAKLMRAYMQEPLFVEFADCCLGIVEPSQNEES
UniProt Q9NWK9: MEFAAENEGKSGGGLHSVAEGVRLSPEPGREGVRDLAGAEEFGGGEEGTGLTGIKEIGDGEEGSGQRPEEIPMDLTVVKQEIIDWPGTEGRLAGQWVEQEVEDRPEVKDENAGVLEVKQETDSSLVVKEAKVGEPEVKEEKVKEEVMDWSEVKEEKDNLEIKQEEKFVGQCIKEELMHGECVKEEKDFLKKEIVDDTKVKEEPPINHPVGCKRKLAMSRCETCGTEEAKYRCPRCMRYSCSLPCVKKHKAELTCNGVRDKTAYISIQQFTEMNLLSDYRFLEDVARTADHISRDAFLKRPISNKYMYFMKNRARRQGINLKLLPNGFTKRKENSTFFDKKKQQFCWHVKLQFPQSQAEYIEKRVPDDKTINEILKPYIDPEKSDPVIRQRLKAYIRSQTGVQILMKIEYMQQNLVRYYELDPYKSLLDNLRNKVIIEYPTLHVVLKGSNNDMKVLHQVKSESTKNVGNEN

Molecules are shown by their SMILES. This is one part of the list.

The first test addresses ZNHIT3 (UniProt Q15649). Briefly: log2 fold change, soluble protein after heating vs DMSO (PISA); higher = thermal stabilisation; K562 cells, 10 uM, 30 min; active = over 0.2 and 3.5 SD of the protein, either way, in both replicates (recomputed). In short, it runs like this:
(§1)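 Thermal stability values are relative to control samples and come from duplicates. They are expressed as log2 fold changes. For measurement, K562 cells (2×10^6 cells/mL) received 10 μM compound for 30 min, and aliquots were heated for 3 min over 48°C-58°C, pooled, and extracted at 4°C in PBS with 0.5% NP-40. Soluble protein, the supernatant after 21,000xg for 90 min, was quantified by TMTpro 16plex LC-MS/MS with equalised channel sums.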
With `CN1CC[C@H](c2c(O)cc(O)c3c(=O)cc(-c4ccccc4Cl)oc23)[C@H](O)C1` [alvocidib], the log2 fold change is inactive: 0.015. As for `Cc1cc(SCc2sc(-c3ccc(C(F)(F)F)cc3)nc2C)ccc1OCC(=O)O`, the log2 fold change is inactive: -0.062. The same measure, in the same setting: for `O=C1NC(=O)C(c2cnc3ccccn23)=C1c1cn2c3c(cc(F)cc13)CN(C(=O)N1CCCCC1)CC2` the value was inactive: -0.046; for `CC[C@H](C)n1cc(C)c2c(C(=O)NCc3c(C)cc(C)[nH]c3=O)cc(-c3ccc(N4CCNCC4)nc3)cc21`, inactive: -0.062; for `Cn1cc(-c2ccc3c(c2)CCN3C(=O)Cc2cccc(C(F)(F)F)c2)c2c(N)ncnc21`, inactive: 0.028. As to `Cc1cc(Nc2cc(N3CCN(C)CC3)nc(Sc3ccc(NC(=O)C4CC4)cc3)n2)n[nH]1` [tozasertib], the log2 fold change is inactive: 0.041. Still for that read-out and setting: for `CC(C)(O)CC(=O)NCCn1ccc2ncnc(Nc3ccc(Oc4cccc(C(F)(F)F)c4)c(Cl)c3)c21` the value was inactive: -0.036; for `O=C(Nc1cccc(Nc2ncc(Br)c(NCCc3cnc[nH]3)n2)c1)N1CCCC1`, inactive: -0.058. On the same count and under the same terms, then `C[C@H](Nc1ncnc2nc[nH]c12)c1cc2cccc(Cl)c2c(=O)n1-c1ccccc1` [duvelisib], with inactive: 0.055; and `C[C@@H](N)c1ccc(C(=O)Nc2ccnc3[nH]ccc23)cc1`, with inactive: -0.074; and `NC1(Cc2ccc(Cl)cc2)CCN(c2ncnc3[nH]ccc23)CC1`, with inactive: -0.008. In the case of `CC[C@H](C)[C@H](NC(=O)[C@H]([C@@H](C)CC)N(C)C(C)=O)C(=O)N[C@H](C(=O)N[C@@H](CC(C)C)C(=O)[C@@]1(C)CO1)[C@@H](C)O` [epoxomicin], the log2 fold change was inactive: 0.159. Same read-out and setting: for `Fc1ccc(Cl)cc1-c1nc(Nc2ccncc2)c2nccnc2n1` the value was inactive: -0.062; for `CN1CCc2c(c3ccccc3n2Cc2ccc(C(=O)NO)cc2)C1` [Tubastatin A], inactive: 0.059; for `CC1=C(C(=O)Nc2cc3cn[nH]c3cc2F)C(c2ccc(C(F)(F)F)cc2)CC(=O)N1` (centres undefined), inactive: 0.106. Still for that read-out and setting: for `Cc1nc(Nc2n[nH]c3c2CN(C(=O)N[C@H](CN(C)C)c2ccccc2)C3(C)C)c2sccc2n1` the value was inactive: -0.004. On the same count and under the same terms, for `CNC(=O)c1ccccc1Nc1nc(Nc2ccc(N3CCOCC3)cc2OC)ncc1Cl` the value was inactive: -0.021. Turning to `CCCCN(Cc1ccc(C(=O)NO)cc1)C(=O)Nc1ccccc1` [Nexturastat A], the log2 fold change is inactive: 0.126. On the same count and under the same terms, then `Cc1nc(Nc2ncc(C(=O)Nc3c(C)cccc3Cl)s2)cc(N2CCN(CCO)CC2)n1` [dasatinib], with inactive: -0.016; and `Cc1ccc2c(=O)c3ccccc3n(CCCN)c2c1C`, with inactive: -0.124; and `CN1CCN(CCOc2cc(OC3CCOCC3)c3c(Nc4c(Cl)ccc5c4OCO5)ncnc3c2)CC1` [saracatinib], with inactive: 0.07. The same measure, in the same setting: then `C[C@@H]1COCCN1c1cc(C2(S(C)(=O)=O)CC2)nc(-c2cccc3[nH]ccc23)n1`, with inactive: -0.002; and `Cc1cn(-c2cc(NC(=O)c3ccc(C)c(Nc4nccc(-c5cccnc5)n4)c3)cc(C(F)(F)F)c2)cn1` [nilotinib], with inactive: -0.117.

In the case of `CNc1nc(-c2ccc3c(N)n[nH]c3c2)cc(N2C[C@@H](C(=O)NC3CCCCC3)CC[C@H]2C)n1`, the log2 fold change is inactive: -0.045. Same read-out and setting: then `Cc1ncc(-c2ccnc(Nc3ccc(S(C)(=O)=O)cc3)n2)n1C(C)C`, with inactive: -0.07; and `CO[C@H]1C[C@@H]2CC[C@@H](C)[C@@](O)(O2)C(=O)C(=O)N2CCCC[C@H]2C(=O)O[C@H]([C@H](C)C[C@@H]2CC[C@H](n3cnnn3)[C@H](OC)C2)CC(=O)[C@H](C)/C=C(\C)[C@@H](O)[C@@H](OC)C(=O)[C@H](C)C[C@H](C)/C=C/C=C/C=C/1C` [zotarolimus], with inactive: -0.054; and `Cn1c2cc(S(C)=O)sc2c2cnn(Cc3cccc(N)c3)c(=O)c21` (centres undefined), with inactive: -0.032. Still for that read-out and setting: for `COc1cc2ncnc(Nc3ccc(F)c(Cl)c3)c2cc1OCCCN1CCOCC1` [gefitinib] the value was inactive: -0.057; for `CC(C)c1cnn2c(NCc3ccccc3)cc(NCCCCCCN)nc12`, inactive: 0.077; for `NC(=O)c1ccc2nc(-c3ccc(Oc4ccc(Cl)cc4)cc3)[nH]c2c1`, inactive: 0.042.

For a further test, the target named is ZNHIT6 (UniProt Q9NWK9). The description is as above. The procedure, abridged:
as §1
On to `CN1CC[C@H](c2c(O)cc(O)c3c(=O)cc(-c4ccccc4Cl)oc23)[C@H](O)C1` [alvocidib], for which the log2 fold change was inactive: -0.023. Same read-out and setting: for `Cc1cc(SCc2sc(-c3ccc(C(F)(F)F)cc3)nc2C)ccc1OCC(=O)O` the value was inactive: -0.11. Regarding `CC[C@H](C)n1cc(C)c2c(C(=O)NCc3c(C)cc(C)[nH]c3=O)cc(-c3ccc(N4CCNCC4)nc3)cc21`, the log2 fold change was inactive: -0.08. The same measure, in the same setting: then `Cn1cc(-c2ccc3c(c2)CCN3C(=O)Cc2cccc(C(F)(F)F)c2)c2c(N)ncnc21`, with inactive: 0.021. The same measure, in the same setting: for `Cc1cc(Nc2cc(N3CCN(C)CC3)nc(Sc3ccc(NC(=O)C4CC4)cc3)n2)n[nH]1` [tozasertib] the value was inactive: 0.007; for `O=C(Nc1cccc(Nc2ncc(Br)c(NCCc3cnc[nH]3)n2)c1)N1CCCC1`, inactive: -0.001. On the same count and under the same terms, for `C[C@H](Nc1ncnc2nc[nH]c12)c1cc2cccc(Cl)c2c(=O)n1-c1ccccc1` [duvelisib] the value was inactive: -0.149; for `C[C@@H](N)c1ccc(C(=O)Nc2ccnc3[nH]ccc23)cc1`, inactive: 0.012. In the case of `NC1(Cc2ccc(Cl)cc2)CCN(c2ncnc3[nH]ccc23)CC1`, the log2 fold change was inactive: -0.047. Still for that read-out and setting: then `CN1CCc2c(c3ccccc3n2Cc2ccc(C(=O)NO)cc2)C1` [Tubastatin A], with inactive: 0.131; and `CC1=C(C(=O)Nc2cc3cn[nH]c3cc2F)C(c2ccc(C(F)(F)F)cc2)CC(=O)N1` (centres undefined), with inactive: -0.054.

As to `Cc1nc(Nc2n[nH]c3c2CN(C(=O)N[C@H](CN(C)C)c2ccccc2)C3(C)C)c2sccc2n1`, the log2 fold change was inactive: 0.122. Still for that read-out and setting: then `CNC(=O)c1ccccc1Nc1nc(Nc2ccc(N3CCOCC3)cc2OC)ncc1Cl`, with inactive: 0.024; and `Cc1nc(Nc2ncc(C(=O)Nc3c(C)cccc3Cl)s2)cc(N2CCN(CCO)CC2)n1` [dasatinib], with inactive: 0.06. As to `Cc1ccc2c(=O)c3ccccc3n(CCCN)c2c1C`, the log2 fold change is inactive: 0.034. Take `CN1CCN(CCOc2cc(OC3CCOCC3)c3c(Nc4c(Cl)ccc5c4OCO5)ncnc3c2)CC1` [saracatinib]: the log2 fold change was inactive: 0.14. Same read-out and setting: then `Cc1cn(-c2cc(NC(=O)c3ccc(C)c(Nc4nccc(-c5cccnc5)n4)c3)cc(C(F)(F)F)c2)cn1` [nilotinib], with inactive: -0.128.

In the case of `CNc1nc(-c2ccc3c(N)n[nH]c3c2)cc(N2C[C@@H](C(=O)NC3CCCCC3)CC[C@H]2C)n1`, the log2 fold change is inactive: 0.131. The same measure, in the same setting: then `Cc1ncc(-c2ccnc(Nc3ccc(S(C)(=O)=O)cc3)n2)n1C(C)C`, with inactive: -0.071; and `CO[C@H]1C[C@@H]2CC[C@@H](C)[C@@](O)(O2)C(=O)C(=O)N2CCCC[C@H]2C(=O)O[C@H]([C@H](C)C[C@@H]2CC[C@H](n3cnnn3)[C@H](OC)C2)CC(=O)[C@H](C)/C=C(\C)[C@@H](O)[C@@H](OC)C(=O)[C@H](C)C[C@H](C)/C=C/C=C/C=C/1C` [zotarolimus], with inactive: -0.147; and `Cn1c2cc(S(C)=O)sc2c2cnn(Cc3cccc(N)c3)c(=O)c21` (centres undefined), with inactive: -0.13. The same measure, in the same setting: then `COc1cc2ncnc(Nc3ccc(F)c(Cl)c3)c2cc1OCCCN1CCOCC1` [gefitinib], with inactive: 0; and `CC(C)c1cnn2c(NCc3ccccc3)cc(NCCCCCCN)nc12`, with inactive: 0.078.

For the compound `NC(=O)c1ccc2nc(-c3ccc(Oc4ccc(Cl)cc4)cc3)[nH]c2c1`, the log2 fold change is inactive: 0.009.
